# These are yes or no findings as the source states them, for the method shown. Some entries that bind do so weakly or less than the wild type.
# Chains of the proteins cited; added tags and fusions are not shown. Lines headed by an entry give the natural chain unless they say otherwise; changes in a name come on top.
# UniProt A0R6E0: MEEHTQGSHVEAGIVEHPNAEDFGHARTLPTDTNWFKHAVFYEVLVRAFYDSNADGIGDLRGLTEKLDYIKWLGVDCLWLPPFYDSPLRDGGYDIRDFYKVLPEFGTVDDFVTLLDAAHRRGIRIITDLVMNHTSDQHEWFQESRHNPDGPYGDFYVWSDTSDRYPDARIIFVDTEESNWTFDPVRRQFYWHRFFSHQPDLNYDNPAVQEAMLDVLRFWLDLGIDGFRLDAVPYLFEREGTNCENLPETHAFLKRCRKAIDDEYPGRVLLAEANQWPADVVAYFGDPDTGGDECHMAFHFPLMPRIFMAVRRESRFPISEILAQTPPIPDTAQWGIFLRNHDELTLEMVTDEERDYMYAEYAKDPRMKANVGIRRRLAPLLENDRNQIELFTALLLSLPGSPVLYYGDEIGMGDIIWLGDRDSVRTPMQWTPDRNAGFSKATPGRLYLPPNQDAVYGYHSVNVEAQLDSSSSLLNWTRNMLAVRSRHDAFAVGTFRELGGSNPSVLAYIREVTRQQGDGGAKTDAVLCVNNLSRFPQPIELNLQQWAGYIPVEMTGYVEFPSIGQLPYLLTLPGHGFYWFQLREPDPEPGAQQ
# UniProt A0R6D9: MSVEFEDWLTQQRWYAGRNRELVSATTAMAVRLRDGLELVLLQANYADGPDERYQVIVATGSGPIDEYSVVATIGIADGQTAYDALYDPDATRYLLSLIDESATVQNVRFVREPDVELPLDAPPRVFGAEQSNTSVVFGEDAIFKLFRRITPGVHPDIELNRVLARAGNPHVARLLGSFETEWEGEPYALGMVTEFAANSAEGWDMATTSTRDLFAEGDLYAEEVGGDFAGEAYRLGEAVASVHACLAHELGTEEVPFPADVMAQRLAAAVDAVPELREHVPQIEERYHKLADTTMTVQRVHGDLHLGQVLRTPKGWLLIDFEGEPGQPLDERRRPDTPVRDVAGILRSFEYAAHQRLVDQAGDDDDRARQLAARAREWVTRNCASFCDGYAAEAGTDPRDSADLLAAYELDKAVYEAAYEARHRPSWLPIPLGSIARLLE
# Legend:
# [1] = molecular target: Mycobacterium smegmatis trehalose synthase (TreS) (M. smegmatis) (UniProt A0R6E0); experiment: SEC; Sephacryl S-300HR (320 ml), proteins alone or equimolar mixtures at 30 μM each; 50 mM sodium phosphate pH 6.0-9.0, 300 mM NaCl, 10% glycerol (Pep2-Δ70 with TreS at pH 6.5); both purified
# [2] = molecular target: Mycobacterium smegmatis trehalose synthase (TreS) (M. smegmatis) (UniProt A0R6E0); experiment: crystal structure; vapor diffusion of mixtures of M. smegmatis TreS and Pep2 at molar ratios 1:1 to 1:2; 9-10% PEG 8000, 4% glycerol, 200 mM MgCl2, 0.1 M Tris-HCl pH 6.7-7.0; 3.6 Å; both purified
binding [1],binding [2],Substance
binds,,N-terminally truncated M. smegmatis Pep2 (Pep2-Δ70) (from UniProt A0R6D9 71-441) (domain or fragment)
binds,binds,Mycobacterium smegmatis maltokinase (Pep2) (from UniProt A0R6D9 1-441) (enzyme)

# Reference: article PMC6509496, “Crystal structure of the TreS:Pep2 complex, initiating α-glucan synthesis in the GlgE pathway of mycobacteria” (The Journal of Biological Chemistry, 2019)
